Laboratory results as given in paper PMC8277905.
Substitutions are numbered along the chain they refer to. Results are given in words; binding and its absence hold for the method and conditions named. In cells and extracts the contact can be indirect. Some entries that bind do so weakly or less than the wild type. For some assays here: Sequences can lack the tags named with a protein.

Sequences of proteins named here, by UniProt entry; tags and fusion partners are left off. Residues count along the entry.
UniProt P63165, residues 1-97: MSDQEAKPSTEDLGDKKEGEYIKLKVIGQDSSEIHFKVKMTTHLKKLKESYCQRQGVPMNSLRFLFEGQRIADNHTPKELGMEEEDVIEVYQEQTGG
UniProt Q00987: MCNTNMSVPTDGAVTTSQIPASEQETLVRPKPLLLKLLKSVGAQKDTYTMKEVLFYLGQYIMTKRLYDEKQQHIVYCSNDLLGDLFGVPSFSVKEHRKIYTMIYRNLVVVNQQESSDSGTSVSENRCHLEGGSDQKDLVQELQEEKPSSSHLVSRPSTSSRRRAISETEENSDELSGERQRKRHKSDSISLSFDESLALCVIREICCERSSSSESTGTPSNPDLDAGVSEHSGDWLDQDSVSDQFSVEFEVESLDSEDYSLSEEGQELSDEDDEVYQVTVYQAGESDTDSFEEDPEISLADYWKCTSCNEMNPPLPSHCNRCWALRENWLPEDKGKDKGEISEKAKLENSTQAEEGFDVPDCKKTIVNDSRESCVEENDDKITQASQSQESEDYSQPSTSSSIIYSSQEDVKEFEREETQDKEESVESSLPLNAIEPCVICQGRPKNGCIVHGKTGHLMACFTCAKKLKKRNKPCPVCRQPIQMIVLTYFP
UniProt Q9Y297: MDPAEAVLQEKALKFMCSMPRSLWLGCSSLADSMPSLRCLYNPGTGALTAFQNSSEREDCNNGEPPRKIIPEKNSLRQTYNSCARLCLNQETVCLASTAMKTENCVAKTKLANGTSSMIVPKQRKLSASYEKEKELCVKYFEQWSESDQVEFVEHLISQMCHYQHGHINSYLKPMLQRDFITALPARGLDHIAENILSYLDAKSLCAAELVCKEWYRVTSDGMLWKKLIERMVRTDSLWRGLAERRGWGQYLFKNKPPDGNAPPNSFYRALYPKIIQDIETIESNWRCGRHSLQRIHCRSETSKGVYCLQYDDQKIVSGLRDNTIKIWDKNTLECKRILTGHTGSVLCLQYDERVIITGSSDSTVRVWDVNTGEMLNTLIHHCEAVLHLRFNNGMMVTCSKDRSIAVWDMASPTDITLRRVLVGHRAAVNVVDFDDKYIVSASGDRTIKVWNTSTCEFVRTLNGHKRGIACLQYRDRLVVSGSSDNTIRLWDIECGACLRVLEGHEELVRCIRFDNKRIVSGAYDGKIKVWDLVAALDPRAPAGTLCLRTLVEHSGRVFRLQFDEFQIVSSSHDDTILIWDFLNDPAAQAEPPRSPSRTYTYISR

Assays:
[1] = molecular target: T1, Period2 (PER2), endogenous in U2OS cells (human (endogenous in U2OS)) (UniProt O15055); assay: proximity ligation; serum-synchronized U2OS cells (shCtrl, shSUMO1 or shSUMO2) fixed at CT 28; anti-PER2 and anti-SUMO1 antibodies against the endogenous proteins, Duolink PLA
T1 sequence: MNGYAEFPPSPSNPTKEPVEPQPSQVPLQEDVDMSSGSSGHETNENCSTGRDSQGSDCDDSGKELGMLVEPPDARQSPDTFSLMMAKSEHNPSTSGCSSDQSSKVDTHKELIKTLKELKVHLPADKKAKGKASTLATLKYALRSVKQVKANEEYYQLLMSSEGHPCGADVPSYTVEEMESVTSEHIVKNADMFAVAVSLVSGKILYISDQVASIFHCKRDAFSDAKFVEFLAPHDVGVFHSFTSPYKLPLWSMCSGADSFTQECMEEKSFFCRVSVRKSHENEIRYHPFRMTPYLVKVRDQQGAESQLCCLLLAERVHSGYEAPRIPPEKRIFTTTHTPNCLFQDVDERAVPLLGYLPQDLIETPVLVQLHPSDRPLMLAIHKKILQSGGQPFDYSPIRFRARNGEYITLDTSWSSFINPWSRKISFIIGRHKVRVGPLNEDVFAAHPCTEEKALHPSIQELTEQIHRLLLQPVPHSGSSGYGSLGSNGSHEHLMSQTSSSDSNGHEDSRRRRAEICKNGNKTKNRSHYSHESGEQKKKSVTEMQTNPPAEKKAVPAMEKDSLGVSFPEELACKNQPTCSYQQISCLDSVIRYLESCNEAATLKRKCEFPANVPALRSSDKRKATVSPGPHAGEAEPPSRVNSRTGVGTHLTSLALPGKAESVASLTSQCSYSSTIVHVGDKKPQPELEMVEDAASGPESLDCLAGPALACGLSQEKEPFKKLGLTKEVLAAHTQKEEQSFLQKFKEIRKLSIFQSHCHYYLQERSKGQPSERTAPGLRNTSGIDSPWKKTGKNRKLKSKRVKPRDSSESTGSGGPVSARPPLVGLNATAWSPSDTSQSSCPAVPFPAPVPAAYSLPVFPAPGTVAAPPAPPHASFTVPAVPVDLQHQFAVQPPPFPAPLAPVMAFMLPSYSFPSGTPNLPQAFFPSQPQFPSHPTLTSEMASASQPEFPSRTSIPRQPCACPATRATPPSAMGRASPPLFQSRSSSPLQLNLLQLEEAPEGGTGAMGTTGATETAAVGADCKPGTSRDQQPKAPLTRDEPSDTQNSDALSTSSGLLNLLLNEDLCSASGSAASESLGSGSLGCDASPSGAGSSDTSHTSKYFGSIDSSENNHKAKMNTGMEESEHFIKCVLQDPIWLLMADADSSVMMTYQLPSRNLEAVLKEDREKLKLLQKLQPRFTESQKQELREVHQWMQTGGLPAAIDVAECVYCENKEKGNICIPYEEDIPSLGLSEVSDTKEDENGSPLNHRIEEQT

[2] = molecular target: T1, Period2 (PER2), endogenous in U2OS cells (human (endogenous in U2OS)); assay: co-IP; endogenous proteins in U2OS cells transduced with shCtrl or shSUMO2 lentivirus; TNE lysis buffer (150 mM NaCl, 1% NP-40, MG132, NEM), antibody overnight at 4 °C, protein A/G agarose; normal IgG as IP control
[3] = molecular target: T2, FLAG-PER2^K736R expressed in HEK-293 T cells (human) (UniProt O15055); assay: co-IP; HEK-293 T cells transfected with FLAG-PER2^WT or FLAG-PER2^K736R; lysates IP with indicated antibodies, immunoblot; normal IgG as IP control
T2 sequence: T1 sequence with K736R

[4] = molecular target: T3, FLAG-PER2^WT expressed in HEK-293 T cells (human) (UniProt O15055); assay: as above
T3 sequence: T1 sequence

Substance: SUMO1, endogenous in U2OS cells (from UniProt P63165 1-97)
- binding [1]: binds

Substance: MDM2, endogenous in U2OS cells (from UniProt Q00987 1-491)
- binding [2]: binds

Substance: β-TrCP, full length isoform (68 kD), endogenous in U2OS cells (from UniProt Q9Y297 1-605)
- binding [2]: binds

Substance: β-TrCP in HEK-293 T cells (from UniProt Q9Y297 1-605)
- binding [3]: binds
- binding [4]: binds
